{"source": "patent US20040141992A1", "about": "“Desensitizers” (priority 2001, published 2004)", "tested_on": "skin reaction and serum IgE level against CypB84", "test": "Phase I clinical trial of peptide vaccine using CypB91 in lung cancer patient", "type": "in vivo, human", "experimental": "The phase I clinical trial of a peptide vaccine using CypB91 was carried out on a lung cancer patient whose skin reaction and serum IgE level against CypB84 were positive in the above allergic skin test. The skin reaction and serum IgE level against CypB91 of the patient were negative. […] A skin reaction and a serum […] level against CypB91 even after 3 times administration of CypB91 were substantially the same as those before administration, i.e., negative (FIG. 1B).", "note": "Part of at least one peptide drawing is inferred or uncertain, most often the ends. No end group written: not given here."}
{"sequence": "DFMIQGGDF [CypB91, DFMIQGGDF]", "values": [{"measurement": "serum IgE level against CypB84", "setting": "after 3 times administration of CypB91", "result": "reduction of serum IgE level"}, {"measurement": "skin reaction against CypB84", "setting": "after 3 times administration of CypB91, lung cancer patient positive against CypB84", "result": "diminution of a skin reaction"}, {"measurement": "inhibition of skin reaction and specific IgE level against CypB84, number of cases", "setting": "among 10 cases tested, vaccination of CypB91 or CypB91-2F-Y", "result": 9, "unit": "cases"}]}
